Assay results as given in the supplement of paper PMC10849652.
The other results are listed elsewhere or left out.

Chains of the proteins cited; added tags and fusions are not shown. Lines headed by an entry give the natural chain unless they say otherwise; changes in a name come on top.
UniProt Q9Y4I5: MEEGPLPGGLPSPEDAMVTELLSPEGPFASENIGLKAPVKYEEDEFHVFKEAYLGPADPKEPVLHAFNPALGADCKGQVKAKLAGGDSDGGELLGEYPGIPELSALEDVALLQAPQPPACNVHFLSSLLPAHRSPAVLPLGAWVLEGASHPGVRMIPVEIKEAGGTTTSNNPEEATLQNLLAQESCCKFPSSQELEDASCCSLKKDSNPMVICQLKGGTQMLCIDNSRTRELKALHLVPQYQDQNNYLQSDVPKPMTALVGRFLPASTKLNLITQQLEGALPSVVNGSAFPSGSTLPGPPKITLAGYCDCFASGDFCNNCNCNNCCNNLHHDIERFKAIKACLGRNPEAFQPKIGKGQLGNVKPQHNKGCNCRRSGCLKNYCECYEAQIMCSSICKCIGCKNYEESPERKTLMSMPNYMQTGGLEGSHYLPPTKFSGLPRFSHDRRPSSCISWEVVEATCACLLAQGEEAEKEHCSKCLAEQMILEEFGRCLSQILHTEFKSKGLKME
UniProt P10646, whole entry, looked up: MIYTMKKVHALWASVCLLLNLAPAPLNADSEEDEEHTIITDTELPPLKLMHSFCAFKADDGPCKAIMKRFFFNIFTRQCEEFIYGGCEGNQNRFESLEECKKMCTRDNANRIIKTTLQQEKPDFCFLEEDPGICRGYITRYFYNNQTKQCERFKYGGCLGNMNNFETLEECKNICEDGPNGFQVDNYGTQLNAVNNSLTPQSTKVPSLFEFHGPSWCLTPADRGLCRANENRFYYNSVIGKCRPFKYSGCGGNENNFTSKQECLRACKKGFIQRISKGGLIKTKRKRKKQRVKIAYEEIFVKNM
UniProt Q01664: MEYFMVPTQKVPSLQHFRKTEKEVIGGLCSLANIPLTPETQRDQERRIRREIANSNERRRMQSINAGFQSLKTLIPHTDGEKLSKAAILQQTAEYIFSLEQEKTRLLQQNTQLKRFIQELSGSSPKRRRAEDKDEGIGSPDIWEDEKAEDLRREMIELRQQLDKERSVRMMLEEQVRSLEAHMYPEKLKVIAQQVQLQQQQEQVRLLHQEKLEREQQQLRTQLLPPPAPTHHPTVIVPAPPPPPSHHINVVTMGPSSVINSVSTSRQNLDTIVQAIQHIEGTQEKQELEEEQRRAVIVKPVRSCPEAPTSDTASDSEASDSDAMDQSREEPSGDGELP
UniProt Q96MN5: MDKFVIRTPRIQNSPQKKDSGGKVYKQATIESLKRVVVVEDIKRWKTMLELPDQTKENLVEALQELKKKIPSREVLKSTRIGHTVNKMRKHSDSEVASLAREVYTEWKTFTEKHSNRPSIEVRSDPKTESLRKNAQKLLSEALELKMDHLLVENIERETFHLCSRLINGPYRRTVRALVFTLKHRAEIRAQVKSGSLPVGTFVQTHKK
UniProt Q9BT92: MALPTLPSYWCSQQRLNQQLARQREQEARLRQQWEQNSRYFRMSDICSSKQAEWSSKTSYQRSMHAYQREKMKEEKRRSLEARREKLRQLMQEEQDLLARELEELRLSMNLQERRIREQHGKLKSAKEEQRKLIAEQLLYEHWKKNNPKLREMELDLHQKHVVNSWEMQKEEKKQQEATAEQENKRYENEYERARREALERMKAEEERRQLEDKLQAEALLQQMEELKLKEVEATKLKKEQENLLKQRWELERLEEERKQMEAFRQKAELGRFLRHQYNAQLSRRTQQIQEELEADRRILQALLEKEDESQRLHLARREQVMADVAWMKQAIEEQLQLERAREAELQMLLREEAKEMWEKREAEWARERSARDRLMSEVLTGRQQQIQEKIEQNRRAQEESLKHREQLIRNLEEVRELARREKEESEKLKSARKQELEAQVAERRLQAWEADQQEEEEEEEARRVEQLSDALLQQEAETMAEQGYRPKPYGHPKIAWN
UniProt Q8NFU7: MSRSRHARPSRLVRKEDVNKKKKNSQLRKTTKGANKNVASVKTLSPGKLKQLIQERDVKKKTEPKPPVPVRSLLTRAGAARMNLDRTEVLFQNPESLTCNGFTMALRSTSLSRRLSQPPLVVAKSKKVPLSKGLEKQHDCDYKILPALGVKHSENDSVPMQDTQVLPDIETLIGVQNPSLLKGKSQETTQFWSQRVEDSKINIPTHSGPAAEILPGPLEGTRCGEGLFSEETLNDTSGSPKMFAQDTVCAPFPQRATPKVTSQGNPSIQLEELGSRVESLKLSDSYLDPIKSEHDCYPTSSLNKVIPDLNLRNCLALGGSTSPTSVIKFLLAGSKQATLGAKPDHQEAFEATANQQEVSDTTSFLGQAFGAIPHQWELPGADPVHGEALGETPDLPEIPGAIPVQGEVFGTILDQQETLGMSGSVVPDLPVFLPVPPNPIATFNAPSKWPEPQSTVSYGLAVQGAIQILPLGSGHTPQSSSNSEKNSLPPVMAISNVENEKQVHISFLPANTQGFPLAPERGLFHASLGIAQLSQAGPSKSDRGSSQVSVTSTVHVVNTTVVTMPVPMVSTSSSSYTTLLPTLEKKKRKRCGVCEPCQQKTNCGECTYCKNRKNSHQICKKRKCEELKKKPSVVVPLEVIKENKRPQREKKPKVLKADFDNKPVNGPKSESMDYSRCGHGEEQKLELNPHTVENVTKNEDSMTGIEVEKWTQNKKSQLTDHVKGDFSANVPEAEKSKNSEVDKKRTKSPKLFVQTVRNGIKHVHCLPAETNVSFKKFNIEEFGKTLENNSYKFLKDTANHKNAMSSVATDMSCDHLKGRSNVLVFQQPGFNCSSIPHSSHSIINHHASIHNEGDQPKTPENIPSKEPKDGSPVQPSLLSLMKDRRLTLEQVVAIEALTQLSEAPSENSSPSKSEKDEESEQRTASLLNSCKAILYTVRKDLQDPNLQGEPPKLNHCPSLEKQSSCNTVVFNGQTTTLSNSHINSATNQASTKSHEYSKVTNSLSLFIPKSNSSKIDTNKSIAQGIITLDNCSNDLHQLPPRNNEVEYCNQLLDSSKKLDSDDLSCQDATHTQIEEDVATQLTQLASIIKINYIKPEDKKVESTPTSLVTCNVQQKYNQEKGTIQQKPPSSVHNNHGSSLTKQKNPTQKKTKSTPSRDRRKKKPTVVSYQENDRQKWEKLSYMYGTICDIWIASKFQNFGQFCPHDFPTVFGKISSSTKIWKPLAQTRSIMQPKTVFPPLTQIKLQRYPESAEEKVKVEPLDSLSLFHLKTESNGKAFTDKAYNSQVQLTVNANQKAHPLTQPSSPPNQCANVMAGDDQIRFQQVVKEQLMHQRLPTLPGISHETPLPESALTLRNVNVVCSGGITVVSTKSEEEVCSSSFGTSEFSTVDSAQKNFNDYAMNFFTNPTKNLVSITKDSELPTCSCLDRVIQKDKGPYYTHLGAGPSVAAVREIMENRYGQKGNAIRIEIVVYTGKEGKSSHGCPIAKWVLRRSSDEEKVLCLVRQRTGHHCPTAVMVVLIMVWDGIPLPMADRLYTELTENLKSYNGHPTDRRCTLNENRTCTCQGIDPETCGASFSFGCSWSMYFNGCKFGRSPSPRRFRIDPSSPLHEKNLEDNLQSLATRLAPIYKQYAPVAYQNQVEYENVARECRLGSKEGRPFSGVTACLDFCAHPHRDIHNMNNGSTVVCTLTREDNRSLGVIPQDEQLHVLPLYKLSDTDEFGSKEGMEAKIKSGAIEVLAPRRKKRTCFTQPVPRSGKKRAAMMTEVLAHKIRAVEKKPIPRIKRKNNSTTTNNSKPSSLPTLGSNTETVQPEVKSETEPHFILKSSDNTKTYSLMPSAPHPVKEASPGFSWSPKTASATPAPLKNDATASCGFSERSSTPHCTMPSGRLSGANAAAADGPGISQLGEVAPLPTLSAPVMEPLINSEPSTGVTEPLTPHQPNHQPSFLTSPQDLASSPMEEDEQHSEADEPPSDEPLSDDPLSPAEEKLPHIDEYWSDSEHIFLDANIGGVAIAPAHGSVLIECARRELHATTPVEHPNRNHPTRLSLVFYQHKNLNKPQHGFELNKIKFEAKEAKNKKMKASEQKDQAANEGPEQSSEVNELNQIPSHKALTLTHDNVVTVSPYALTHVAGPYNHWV
UniProt Q13428: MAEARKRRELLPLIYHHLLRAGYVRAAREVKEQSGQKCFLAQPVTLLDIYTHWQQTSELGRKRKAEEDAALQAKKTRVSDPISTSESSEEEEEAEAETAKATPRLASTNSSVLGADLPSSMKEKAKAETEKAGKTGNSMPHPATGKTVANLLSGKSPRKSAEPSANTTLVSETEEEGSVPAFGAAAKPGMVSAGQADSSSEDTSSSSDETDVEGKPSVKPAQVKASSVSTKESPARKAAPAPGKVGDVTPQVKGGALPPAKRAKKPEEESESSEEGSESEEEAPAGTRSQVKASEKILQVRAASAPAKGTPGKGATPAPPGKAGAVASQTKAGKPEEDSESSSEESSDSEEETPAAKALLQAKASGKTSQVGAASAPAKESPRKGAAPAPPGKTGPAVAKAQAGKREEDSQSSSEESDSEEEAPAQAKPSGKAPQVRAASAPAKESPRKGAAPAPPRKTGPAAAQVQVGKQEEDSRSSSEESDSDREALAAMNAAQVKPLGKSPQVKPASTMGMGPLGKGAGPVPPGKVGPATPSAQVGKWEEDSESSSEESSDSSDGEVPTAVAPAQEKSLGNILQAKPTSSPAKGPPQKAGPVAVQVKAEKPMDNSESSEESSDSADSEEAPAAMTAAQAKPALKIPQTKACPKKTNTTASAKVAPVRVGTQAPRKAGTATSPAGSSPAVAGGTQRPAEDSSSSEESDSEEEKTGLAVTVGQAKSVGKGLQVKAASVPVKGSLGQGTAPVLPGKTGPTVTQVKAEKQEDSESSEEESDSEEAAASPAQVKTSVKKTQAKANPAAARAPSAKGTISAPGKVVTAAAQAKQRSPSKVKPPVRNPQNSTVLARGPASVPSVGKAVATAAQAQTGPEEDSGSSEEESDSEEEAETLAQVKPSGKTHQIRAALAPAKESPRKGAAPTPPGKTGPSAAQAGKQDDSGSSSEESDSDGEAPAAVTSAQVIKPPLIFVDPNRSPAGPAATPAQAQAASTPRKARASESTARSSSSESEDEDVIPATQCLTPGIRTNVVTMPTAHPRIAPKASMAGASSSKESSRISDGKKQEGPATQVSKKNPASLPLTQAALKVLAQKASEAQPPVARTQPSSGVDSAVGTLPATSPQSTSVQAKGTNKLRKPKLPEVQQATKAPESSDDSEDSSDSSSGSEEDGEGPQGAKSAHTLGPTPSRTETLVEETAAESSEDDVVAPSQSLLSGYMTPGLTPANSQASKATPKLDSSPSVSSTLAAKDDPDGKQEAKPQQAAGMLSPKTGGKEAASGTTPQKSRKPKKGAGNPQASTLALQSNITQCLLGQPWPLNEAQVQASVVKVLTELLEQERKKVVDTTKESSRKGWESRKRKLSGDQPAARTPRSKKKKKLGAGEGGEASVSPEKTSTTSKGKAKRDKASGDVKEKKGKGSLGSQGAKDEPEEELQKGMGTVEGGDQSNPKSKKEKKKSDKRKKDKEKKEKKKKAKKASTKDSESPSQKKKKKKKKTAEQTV
UniProt Q00059: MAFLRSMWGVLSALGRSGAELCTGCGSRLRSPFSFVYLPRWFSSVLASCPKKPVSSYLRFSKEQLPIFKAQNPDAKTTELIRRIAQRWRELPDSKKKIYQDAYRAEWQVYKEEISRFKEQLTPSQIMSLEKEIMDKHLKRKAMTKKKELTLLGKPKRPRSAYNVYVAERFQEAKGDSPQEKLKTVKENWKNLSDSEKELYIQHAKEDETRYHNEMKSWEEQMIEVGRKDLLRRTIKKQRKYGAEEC
UniProt Q5VWP2: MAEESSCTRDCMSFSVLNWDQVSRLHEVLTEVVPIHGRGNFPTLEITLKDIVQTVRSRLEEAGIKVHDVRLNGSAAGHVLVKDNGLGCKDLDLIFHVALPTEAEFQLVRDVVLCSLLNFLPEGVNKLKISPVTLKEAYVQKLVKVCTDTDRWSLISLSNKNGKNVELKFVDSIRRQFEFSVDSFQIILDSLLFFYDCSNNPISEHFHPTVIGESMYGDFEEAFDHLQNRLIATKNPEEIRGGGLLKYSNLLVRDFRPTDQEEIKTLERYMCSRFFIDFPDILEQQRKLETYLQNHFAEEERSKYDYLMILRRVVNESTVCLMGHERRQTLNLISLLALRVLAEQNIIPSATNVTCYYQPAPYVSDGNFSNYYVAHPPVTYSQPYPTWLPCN

How the values were obtained:
Experiment in all cases: log2 fold change, soluble protein after heating vs DMSO (PISA); higher = thermal stabilisation; K562 lysate, 10 uM; active = over 0.2 and 3.5 SD of the protein, either way, in both replicates (recomputed)
[1] = compound: NCC(=O)Nc1ccc(-n2nc(C(F)(F)F)cc2-c2ccc3c(ccc4ccccc43)c2)cc1
Outline: (§1)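 Log-two fold change in thermal stability relative to solvent controls is reported from duplicates. For each sample, crude K562 extract from dounce-homogenised pellets in PBS pH 7.4 with 1 mM MgCl2, at 1 mg/mL protein, was treated with 10 μM compound for 30 min. Aliquots heated for 3 min across 48°C-58°C were pooled, brought to 0.5% NP-40 at 4°C and cleared at 21,000xg for 90 min. The supernatant was quantified by TMTpro 16plex LC-MS/MS with channel sums equalised.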

vorinostat = compound: O=C(CCCCCCC(=O)Nc1ccccc1)NO [vorinostat]
Outline: as §1

silmitasertib = compound: O=C(O)c1ccc2c(c1)nc(Nc1cccc(Cl)c1)c1ccncc12 [silmitasertib]
Outline: as §1

[2] = compound: O=C1NC(=O)C(c2cnc3ccccn23)=C1c1cn2c3c(cc(F)cc13)CN(C(=O)N1CCCCC1)CC2
Outline: as §1

entospletinib = compound: c1cn2cc(-c3ccc4cn[nH]c4c3)nc(Nc3ccc(N4CCOCC4)cc3)c2n1 [entospletinib]
Outline: as §1

Measured: log2 fold change

TESMIN (UniProt Q9Y4I5)
inactive: [1] -0.097 | vorinostat 0.158 | silmitasertib 0.026 | [2] -0.039 | entospletinib 0.01

TFPI isoform 2 (UniProt P10646)
inactive: [1] 0.184 | [2] 0.019

TBC1D12 (UniProt O60347)
inactive: [1] 0.418 | vorinostat -0.267 | silmitasertib -0.008 | [2] 0.001 | entospletinib -0.102

2 successive records out of the list so far, quoted:
TFPI isoform 2 (UniProt P10646)
inactive: [1] 0.184 | [2] 0.019

TBC1D12 (UniProt O60347)
inactive: [1] 0.418 | vorinostat -0.267 | silmitasertib -0.008 | [2] 0.001 | entospletinib -0.102

Remaining list, next part

TFAP4 (UniProt Q01664)
inactive: [1] 0.005 | vorinostat 0.051 | silmitasertib -0.196 | [2] 0.01 | entospletinib -0.086

TCEANC2 (UniProt Q96MN5)
inactive: [1] -0.067 | vorinostat -0.122 | silmitasertib 0.056 | entospletinib -0.068

TCHP (UniProt Q9BT92)
inactive: [1] 0.089 | vorinostat -0.112 | silmitasertib 0.014 | [2] -0.01 | entospletinib -0.073

TET1 (UniProt Q8NFU7)
inactive: [1] 0.228 | vorinostat 0.308 | silmitasertib -0.123 | [2] 0.23 | entospletinib -0.025

TCOF1 isoform 4 (UniProt Q13428)
inactive: [1] 0.013 | vorinostat 0.032 | silmitasertib -0.019 | [2] 0.009 | entospletinib 0.002

TFAM (UniProt Q00059)
inactive: [1] -0.02 | vorinostat 0.099 | silmitasertib -0.026 | [2] 0.002 | entospletinib 0.015

TENT5C (UniProt Q5VWP2)
inactive: [1] 0.005 | vorinostat 0.056 | silmitasertib -0.047 | [2] -0.09 | entospletinib 0.046
